Test results taken from PubChem BioAssay AID504467 (National Center for Advancing Translational Sciences (NCATS), 2011).
About 7,700 (2.3%) of roughly 330,000 compounds were called active. Inconclusive results, whose numbers are uncertain, are shown with a selection of clear calls. Calls follow the shape of the dose curve; as a rule, active = well fitted inhibition curve with a large enough effect; inconclusive = small, poorly fitted or top-dose-only effect, or effect the other way; inactive = flat fitted curve, though single readings scatter. Potencies of inconclusive entries are doubtful fits and often do not repeat.

Test: qHTS screen for small molecules that inhibit ELG1-dependent DNA repair in human embryonic kidney (HEK293T) cells expressing luciferase-tagged ELG1; also: nearly all actives have a fitted effect of over 55% in size
Details: HEK293T ELG1-luciferase reporter, luminescence, 16 h, DNA damage induced by 5-fluorouridine; activity change, negative = inhibition: at 46.1 µM (top of the series)
Procedure, shortened: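 Reporter activity after DNA damage by 5-fluorouridine is monitored. Compound-treated cells incubate 16 hr at 37 °C, then ONE-Glo is added for 30 min before luminescence reading.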
% is scaled to controls: 0 for no effect and ±100 for the full control effect; potency is read from the fitted curve at half-maximal effect.

Which Potency does the source give for `c1ccc(CNc2ccc3ccccc3n2)nc1` here?
Its Potency is inconclusive: 2.31 µM [activator, partial curve].

For `O=C(/C=C/c1ccccc1)c1cc(Br)ccc(=O)c1O`, which Potency is on record?
The Potency was inconclusive: 14.6 µM [inhibitor, partial curve].

For `COc1ccc2sc(-c3ccccc3OC)c(-c3ccc(OCCN(C)C)cc3)c2c1`, which Potency is on record?
Its Potency is inconclusive: 32.6 µM [inhibitor, single point].

For `COCCNc1nnc(SC(C)C(=O)Nc2ccc(-c3nc4ccc(C)cc4s3)cc2)s1` (stereo unspecified), which Potency is on record?
The Potency was inconclusive: 1.64 µM [activator, partial curve].

Which “activity change, negative = inhibition” value does the source give for `COc1ccc(C(=O)N2CCN(S(=O)(=O)c3ccc(Br)cc3)CC2)cc1` here?
Its value is inactive: -2.87%.

With `COc1cc(OC)c(C(=O)OCC(=O)Nc2nnc(-c3ccccc3)o2)cc1OC` as the compound, how does the “activity change, negative = inhibition” value read?
Its value is inactive: 4.39%.

For `COc1ccc(S(=O)(=O)Nc2ncccc2C)c2ccccc12`, which Potency is on record?
Its Potency is inconclusive: 5.62 µM [inhibitor, single point].

Which “activity change, negative = inhibition” value does the source give for `C#CCOCCOCCOCCNc1nc(N2CCN(C(=O)[C@H](CCCCN)n3cc(CCCC)nn3)CC2)nc(N2CCN(C(=O)[C@H](CCCCN)n3cc(CCC(=O)O)nn3)CC2)n1` here?
The value was inactive: 21.1%.

With `CCCCC(CC)C(=O)Oc1ccc(O)c(C(C)(C)C)c1` (stereo unspecified) as the compound, how does the Potency read?
The Potency was inconclusive: 16.4 µM [inhibitor, single point].

Which “activity change, negative = inhibition” value does the source give for `[O-]/[N+](=C\c1ccccc1)c1ccccc1` here?
Its value is inactive: 0.534%.

Which Potency does the source give for `Cc1ccc(C(=O)CSc2nnc(C)s2)cc1` here?
Its Potency is inconclusive: 13 µM [activator, partial curve].

For `COc1ccc(C(=O)C(CCC(CNC(C)(C)C)C(=O)c2ccc(OC)cc2)CNC(C)(C)C)cc1` (stereo unspecified), which Potency is on record?
Its Potency is active: 8.2 µM.

For `Cc1ccc(C2OC(=O)C=C2c2ccccc2)cc1` (stereo unspecified), which Potency is on record?
The Potency was inconclusive: 3.16 µM [activator, single point].

For `COc1cc(/C=C/C(=O)OCC(=O)Nc2ccc(C)cc2[N+](=O)[O-])ccc1O`, which Potency is on record?
Its Potency is inconclusive: 29.1 µM [activator, single point].

Which Potency does the source give for `COc1ccc(CCNC(=O)CCCc2ccccc2)cc1` here?
Its Potency is inconclusive: 4.47 µM [activator, partial curve, poor fit].

Which Potency does the source give for `c1ccc(CCNc2ncnc3c2cnn3-c2ccccc2)cc1` here?
The Potency was inconclusive: 3.26 µM [activator, full curve].

Which Potency does the source give for `CCN(Cc1nc2cc(Cl)ccc2c(=O)[nH]1)C(=O)c1cc(C2CC2)nn1-c1ccccc1` here?
The Potency was inconclusive: 16.4 µM [inhibitor, single point].

Which Potency does the source give for `COC(=O)c1ccc(/C=N/NC(=O)c2cccc(F)c2)cc1` here?
Its Potency is inconclusive: 9.2 µM [activator, partial curve].

With `Cc1ccc(S(=O)(=O)N2CCN(C(=O)c3cccs3)CC2)c(C)c1` as the compound, how does the Potency read?
Its Potency is inconclusive: 23.1 µM [inhibitor, partial curve, poor fit].

With `COC(=O)c1ccc2nc(NC(=O)COC(=O)CSc3nc(C)cc(C)n3)sc2c1` as the compound, how does the Potency read?
The Potency was inconclusive: 20.6 µM [activator, partial curve].

Which Potency does the source give for `CCC1CCC/C1=N\NC(=O)c1ccoc1C` (stereo unspecified) here?
Its Potency is inconclusive: 18.3 µM [activator, partial curve].

Which Potency does the source give for `O=c1c2ccccc2nc(N/N=C/c2c(O)ccc3ccccc23)n1O` here?
The Potency was inconclusive: 0.58 µM [inhibitor, single point].

Which “activity change, negative = inhibition” value does the source give for `O=C(Oc1ccc2ccc(=O)oc2c1)c1ccco1` here?
Its value is inactive: 24.9%.

Which Potency does the source give for `Cc1cc(C)nc(N2CCCC(C(=O)Nc3ccc4nc(C)c(C)nc4c3)C2)n1` (stereo unspecified) here?
The Potency was active: 11.6 µM.

For `c1cncc(N=c2scc(-c3cccc4ccccc34)n2CCCn2ccnc2)c1`, which Potency is on record?
Its Potency is inconclusive: 18.4 µM [inhibitor, partial curve].

With `Cc1ccccc1NC(=O)C(=O)NCC1CCCN1S(=O)(=O)c1cccs1` (stereo unspecified) as the compound, how does the “activity change, negative = inhibition” value read?
The value was inactive: 2.06%.

Which “activity change, negative = inhibition” value does the source give for `CC1Oc2ccccc2N(Cc2ccc(F)cc2)C1=O` (stereo unspecified) here?
Its value is inactive: -0.18%.

For `CC(=O)c1ccc(N2CCN(C(=O)Cc3n[nH]c(=O)c4ccccc34)CC2)cc1`, which Potency is on record?
The Potency was inconclusive: 13 µM [inhibitor, single point].

With `N#Cc1c(C(F)(F)F)cc(-c2ccccc2)nc1SCCN1CCOCC1` as the compound, how does the Potency read?
Its Potency is inconclusive: 25.1 µM [inhibitor, single point].

For `CC(C)(C)OC(=O)N1CCC(c2c(C(=O)N3CCN(C(=O)c4ccco4)CC3)cnn2-c2ccc(F)cc2)CC1`, which Potency is on record?
Its Potency is inconclusive: 23.1 µM [inhibitor, partial curve].

With `O=C(N1CCN(Cc2ccc3c(c2)OCO3)CC1)C12CC3CC(CC(C3)C1)C2` as the compound, how does the Potency read?
The Potency was inconclusive: 25.9 µM [inhibitor, partial curve, poor fit].

For `O=c1cc(-c2ccco2)oc2c1ccc1ccccc12`, which Potency is on record?
The Potency was inconclusive: 2.59 µM [inhibitor, partial curve, poor fit].

Which Potency does the source give for `COc1ccc(-c2noc(CSc3ccccc3)n2)cc1OC` here?
Its Potency is inconclusive: 9.2 µM [activator, partial curve].

With `COc1ccc(-c2nc3cc(NC(=S)NC(=O)Cc4ccccc4)ccc3o2)cc1` as the compound, how does the Potency read?
The Potency was inconclusive: 14.6 µM [activator, partial curve].

With `CC(NC(=O)COC(=O)c1ccc(N(C)C)cc1)c1ccccc1` (stereo unspecified) as the compound, how does the Potency read?
Its Potency is inconclusive: 23.1 µM [inhibitor, single point].

With `COc1ccc(C2Nc3ccccc3NC3=C2C(=O)CC(C)(C)C3)cc1` (stereo unspecified) as the compound, how does the Potency read?
Its Potency is inconclusive: 29.1 µM [activator, single point].

For `Cc1[nH]c2ccc(C(=O)OC(C)C(=O)NC3CCCCC3C)cc2c1C` (stereo unspecified), which Potency is on record?
The Potency was inconclusive: 35.5 µM [inhibitor, single point].

With `COc1ccc(/C=C2/SC(=O)NC2=O)cc1` as the compound, how does the Potency read?
Its Potency is inconclusive: 23.1 µM [activator, partial curve].

For `COc1ccc(N(CC(=O)N/N=C/c2ccco2)S(=O)(=O)c2ccccc2)cc1Cl`, which “activity change, negative = inhibition” value is on record?
The value was inactive: 0%.

For `COC(=O)COc1ccc(/C=C2/SC(=O)N(CC(=O)N3CCCC3)C2=O)cc1Br`, which Potency is on record?
Its Potency is inconclusive: 2.91 µM [activator, partial curve, poor fit].

With `COC1=CC(=O)c2ccccc2C1=O` as the compound, how does the Potency read?
Its Potency is active: 18.3 µM.

With `CCOC(=O)C1(C)NC(c2ccc(N(C)C)cc2)C2C(=O)N(c3ccc(OC)cc3)C(=O)C21` (stereo unspecified) as the compound, how does the “activity change, negative = inhibition” value read?
The value was inactive: -0.14%.

For `CC(=O)[C@@]1(O)C(C)CC2C3C=C(C)C4=Cc5c(cnn5-c5ccccc5)C[C@]4(C)C3C(O)C[C@@]21C` (stereo partly specified), which Potency is on record?
Its Potency is inconclusive: 5.8 µM [activator, partial curve, poor fit].

With `Cc1ccc(Nc2nc(N3CCOCC3)nc(N3CCOCC3)n2)cc1C` as the compound, how does the Potency read?
The Potency was inconclusive: 16.4 µM [inhibitor, partial curve, poor fit].

With `COc1ccc(-c2nc(CSCC(=O)N3CCc4ccccc43)c(C)o2)cc1OC` as the compound, how does the Potency read?
The Potency was inconclusive: 22.4 µM [inhibitor, single point].

With `CC(NC(=O)c1ccc([N+](=O)[O-])cc1Cl)C1CC2CCC1C2` (stereo unspecified) as the compound, how does the “activity change, negative = inhibition” value read?
Its value is inactive: 16.9%.

Which Potency does the source give for `Cc1cccc(NC(=S)NC(=O)c2oc3ccccc3c2C)n1` here?
The Potency was inconclusive: 2.59 µM [activator, full curve].

With `O=C(NC1CCCCC1)C(c1cccs1)N(C(=O)c1ccco1)c1ccc2c(c1)OCCO2` (stereo unspecified) as the compound, how does the Potency read?
Its Potency is inconclusive: 11.6 µM [activator, partial curve, poor fit].

With `CCC(C)(C)C(=O)Nc1ccc(C(N)=O)cc1` as the compound, how does the Potency read?
Its Potency is inconclusive: 18.4 µM [activator, partial curve, poor fit].

Which Potency does the source give for `Cc1occc1C(=O)O/N=C(\N)c1ccccc1` here?
The Potency was inconclusive: 2.91 µM [activator, partial curve].

With `Oc1ccc(/C=N/N=C(c2ccccc2)c2ccccc2)c(O)c1O` as the compound, how does the “activity change, negative = inhibition” value read?
The value was inactive: -17.1%.

For `CC[C@@]12C(=O)N(c3cccc(Br)c3)C(=O)N1[C@H](c1cccc(C)c1)[C@@H]1C(=O)N(Cc3ccccc3)C(=O)[C@@H]12`, which “activity change, negative = inhibition” value is on record?
Its value is inactive: -11.8%.

For `Cc1ccc(-c2cc(C(=O)Nc3nccs3)c3ccccc3n2)c(C)c1`, which Potency is on record?
The Potency was active: 13 µM.

With `CCN(C(=O)CSc1nc(C)nc2sc3c(c12)CCC3)C1CCS(=O)(=O)C1` (stereo unspecified) as the compound, how does the Potency read?
Its Potency is inconclusive: 29.1 µM [inhibitor, single point].

With `Cc1cc(NC(=O)CCNS(=O)(=O)c2cc(Br)cnc2N)ccc1Br` as the compound, how does the Potency read?
The Potency was inconclusive: 32.6 µM [inhibitor, partial curve, poor fit].

For `CCCN1C(=O)c2cc(C(=O)Nc3cccc(C(C)=O)c3)ccc2C1Nc1cccc(C(C)=O)c1` (stereo unspecified), which Potency is on record?
Its Potency is active: 16.4 µM.

For `CCOC(=O)Cc1c(C)nc2c(-c3ccccc3)c(C)[nH]n2c1=O`, which “activity change, negative = inhibition” value is on record?
The value was inactive: 6.27%.

For `CN(CCOc1ccccc1)C(=O)C1CCC(=O)N(CCc2ccc(Cl)cc2)C1` (stereo unspecified), which Potency is on record?
Its Potency is inconclusive: 14.6 µM [activator, partial curve].

For `CCN(Cc1nc2ccccc2c(=O)[nH]1)C(=O)c1ccc(C)c(NC(=O)c2ccco2)c1`, which Potency is on record?
The Potency was inconclusive: 20.6 µM [inhibitor, partial curve, poor fit].

Which “activity change, negative = inhibition” value does the source give for `O=[N+]([O-])c1ccc(Sc2ccccn2)nc1` here?
Its value is inactive: 6.51%.

With `CCOc1cc(C)ccc1OCc1nnc(SCC(=O)c2cccc([N+](=O)[O-])c2)n1CC` as the compound, how does the Potency read?
The Potency was inconclusive: 4.11 µM [inhibitor, single point].

For `CCOc1cc(/C=N\Nc2nc(Nc3ccccc3)nc(N3CCOCC3)n2)ccc1OC(=O)c1ccco1`, which Potency is on record?
The Potency was active: 2.31 µM.

Which “activity change, negative = inhibition” value does the source give for `O=C(CSc1nnc(CCCN2C(=O)c3cccc4cccc(c34)C2=O)n1-c1ccccc1)NCCCN1CCOCC1` here?
The value was inactive: -5.98%.

With `CC(/C=C\C=C\c1ccccc1)=N\NC(=O)c1cncc(Br)c1` as the compound, how does the Potency read?
Its Potency is inconclusive: 6.51 µM [inhibitor, partial curve].

Which “activity change, negative = inhibition” value does the source give for `COc1cc(CC(=O)N(CC(C)C)C2CCS(=O)(=O)C2)cc(OC)c1OC` (stereo unspecified) here?
Its value is inactive: 5.12%.

Which Potency does the source give for `O=C(Nc1nc2c(s1)CCCC2)c1cc2n(n1)C(C(F)(F)F)CC(C1CC1)N2` (stereo unspecified) here?
Its Potency is inconclusive: 16.4 µM [activator, partial curve].
